Experimental data as given in the supplement of paper PMC10849652.
Some of the results follow.

Sequences of proteins named here, by UniProt entry; tags and fusion partners are left off. A change or cut given only in a name is not applied to a line headed by its entry.
UniProt Q9UG56: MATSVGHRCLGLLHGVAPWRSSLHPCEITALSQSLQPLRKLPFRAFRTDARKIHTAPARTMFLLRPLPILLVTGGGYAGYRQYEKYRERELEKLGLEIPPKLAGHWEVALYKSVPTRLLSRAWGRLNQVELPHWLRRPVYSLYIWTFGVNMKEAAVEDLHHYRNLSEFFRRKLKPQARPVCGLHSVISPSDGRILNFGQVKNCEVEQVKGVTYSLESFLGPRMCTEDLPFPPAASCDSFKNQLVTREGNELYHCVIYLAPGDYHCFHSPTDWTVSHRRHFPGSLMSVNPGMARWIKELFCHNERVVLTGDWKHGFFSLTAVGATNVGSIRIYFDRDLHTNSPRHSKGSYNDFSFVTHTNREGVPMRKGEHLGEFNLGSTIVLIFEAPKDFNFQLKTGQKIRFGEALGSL
UniProt Q99453, whole entry, looked up: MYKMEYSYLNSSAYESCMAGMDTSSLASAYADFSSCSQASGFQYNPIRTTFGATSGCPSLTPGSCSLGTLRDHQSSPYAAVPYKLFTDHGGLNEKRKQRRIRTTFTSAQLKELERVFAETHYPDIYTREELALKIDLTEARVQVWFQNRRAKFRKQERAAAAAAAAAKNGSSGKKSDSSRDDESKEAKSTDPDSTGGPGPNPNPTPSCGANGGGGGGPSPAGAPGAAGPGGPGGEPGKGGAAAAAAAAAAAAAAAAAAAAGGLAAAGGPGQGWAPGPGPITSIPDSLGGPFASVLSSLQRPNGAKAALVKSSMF
UniProt Q8IZ21: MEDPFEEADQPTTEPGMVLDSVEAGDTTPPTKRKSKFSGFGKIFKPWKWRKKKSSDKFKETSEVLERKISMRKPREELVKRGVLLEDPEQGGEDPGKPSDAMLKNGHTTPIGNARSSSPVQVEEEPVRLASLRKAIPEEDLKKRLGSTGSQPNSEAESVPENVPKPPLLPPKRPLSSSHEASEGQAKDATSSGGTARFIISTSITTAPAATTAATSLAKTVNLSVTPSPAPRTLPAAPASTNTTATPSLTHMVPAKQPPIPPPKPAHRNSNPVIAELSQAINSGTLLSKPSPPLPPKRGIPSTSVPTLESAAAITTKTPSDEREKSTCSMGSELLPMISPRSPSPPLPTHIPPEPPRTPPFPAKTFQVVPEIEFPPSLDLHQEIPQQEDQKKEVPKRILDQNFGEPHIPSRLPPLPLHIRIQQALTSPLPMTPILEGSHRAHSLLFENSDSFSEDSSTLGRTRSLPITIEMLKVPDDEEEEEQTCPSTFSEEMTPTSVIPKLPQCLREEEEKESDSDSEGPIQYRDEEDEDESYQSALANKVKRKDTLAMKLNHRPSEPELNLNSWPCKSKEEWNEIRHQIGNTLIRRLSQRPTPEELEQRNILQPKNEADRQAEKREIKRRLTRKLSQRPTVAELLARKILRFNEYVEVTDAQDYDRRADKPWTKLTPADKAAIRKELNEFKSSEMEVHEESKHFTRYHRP
UniProt P78364: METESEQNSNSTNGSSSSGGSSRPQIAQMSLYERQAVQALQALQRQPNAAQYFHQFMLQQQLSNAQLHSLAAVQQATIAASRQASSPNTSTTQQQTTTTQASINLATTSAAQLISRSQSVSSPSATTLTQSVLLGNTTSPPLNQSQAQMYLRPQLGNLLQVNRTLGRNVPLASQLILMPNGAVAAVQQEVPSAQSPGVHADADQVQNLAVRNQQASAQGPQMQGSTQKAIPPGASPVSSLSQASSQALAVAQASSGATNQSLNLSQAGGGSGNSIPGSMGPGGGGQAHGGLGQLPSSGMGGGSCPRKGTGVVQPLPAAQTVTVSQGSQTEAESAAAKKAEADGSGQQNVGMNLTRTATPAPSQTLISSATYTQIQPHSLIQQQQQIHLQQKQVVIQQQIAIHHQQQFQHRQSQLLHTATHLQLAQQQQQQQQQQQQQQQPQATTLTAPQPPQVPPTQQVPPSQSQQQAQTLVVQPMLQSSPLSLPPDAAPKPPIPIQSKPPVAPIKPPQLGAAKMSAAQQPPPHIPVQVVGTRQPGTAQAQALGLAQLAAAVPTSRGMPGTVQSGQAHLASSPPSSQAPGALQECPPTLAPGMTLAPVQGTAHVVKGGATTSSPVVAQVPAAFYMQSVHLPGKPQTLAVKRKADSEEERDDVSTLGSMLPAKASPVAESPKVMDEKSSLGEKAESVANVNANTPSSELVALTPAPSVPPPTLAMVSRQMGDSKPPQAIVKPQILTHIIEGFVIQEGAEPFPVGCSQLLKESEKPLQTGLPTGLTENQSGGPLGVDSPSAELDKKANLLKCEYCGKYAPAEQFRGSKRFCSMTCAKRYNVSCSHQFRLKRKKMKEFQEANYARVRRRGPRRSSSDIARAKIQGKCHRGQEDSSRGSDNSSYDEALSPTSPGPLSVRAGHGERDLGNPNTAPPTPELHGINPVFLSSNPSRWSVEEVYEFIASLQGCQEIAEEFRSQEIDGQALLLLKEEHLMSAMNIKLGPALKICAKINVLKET
UniProt Q9GZP4: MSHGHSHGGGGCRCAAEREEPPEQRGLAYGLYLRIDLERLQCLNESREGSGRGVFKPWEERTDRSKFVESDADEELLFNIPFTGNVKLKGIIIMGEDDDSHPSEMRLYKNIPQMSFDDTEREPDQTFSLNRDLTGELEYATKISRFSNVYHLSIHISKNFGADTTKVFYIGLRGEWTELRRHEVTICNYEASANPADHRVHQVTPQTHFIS
UniProt O14986: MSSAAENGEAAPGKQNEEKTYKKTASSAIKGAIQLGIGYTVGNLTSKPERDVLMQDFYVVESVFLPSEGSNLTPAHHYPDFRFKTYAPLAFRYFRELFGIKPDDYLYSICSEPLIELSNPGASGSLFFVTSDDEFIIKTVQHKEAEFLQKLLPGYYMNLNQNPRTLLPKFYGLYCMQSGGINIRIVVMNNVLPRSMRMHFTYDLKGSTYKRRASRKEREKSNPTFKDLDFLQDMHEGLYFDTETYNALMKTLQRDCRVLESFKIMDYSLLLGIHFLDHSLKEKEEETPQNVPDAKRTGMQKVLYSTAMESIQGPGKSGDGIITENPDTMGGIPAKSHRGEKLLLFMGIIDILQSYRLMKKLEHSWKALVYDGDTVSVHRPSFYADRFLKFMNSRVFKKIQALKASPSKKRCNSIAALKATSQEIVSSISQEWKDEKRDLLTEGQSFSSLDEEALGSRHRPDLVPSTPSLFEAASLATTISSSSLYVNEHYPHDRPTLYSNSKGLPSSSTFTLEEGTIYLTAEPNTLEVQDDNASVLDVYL
UniProt O00562: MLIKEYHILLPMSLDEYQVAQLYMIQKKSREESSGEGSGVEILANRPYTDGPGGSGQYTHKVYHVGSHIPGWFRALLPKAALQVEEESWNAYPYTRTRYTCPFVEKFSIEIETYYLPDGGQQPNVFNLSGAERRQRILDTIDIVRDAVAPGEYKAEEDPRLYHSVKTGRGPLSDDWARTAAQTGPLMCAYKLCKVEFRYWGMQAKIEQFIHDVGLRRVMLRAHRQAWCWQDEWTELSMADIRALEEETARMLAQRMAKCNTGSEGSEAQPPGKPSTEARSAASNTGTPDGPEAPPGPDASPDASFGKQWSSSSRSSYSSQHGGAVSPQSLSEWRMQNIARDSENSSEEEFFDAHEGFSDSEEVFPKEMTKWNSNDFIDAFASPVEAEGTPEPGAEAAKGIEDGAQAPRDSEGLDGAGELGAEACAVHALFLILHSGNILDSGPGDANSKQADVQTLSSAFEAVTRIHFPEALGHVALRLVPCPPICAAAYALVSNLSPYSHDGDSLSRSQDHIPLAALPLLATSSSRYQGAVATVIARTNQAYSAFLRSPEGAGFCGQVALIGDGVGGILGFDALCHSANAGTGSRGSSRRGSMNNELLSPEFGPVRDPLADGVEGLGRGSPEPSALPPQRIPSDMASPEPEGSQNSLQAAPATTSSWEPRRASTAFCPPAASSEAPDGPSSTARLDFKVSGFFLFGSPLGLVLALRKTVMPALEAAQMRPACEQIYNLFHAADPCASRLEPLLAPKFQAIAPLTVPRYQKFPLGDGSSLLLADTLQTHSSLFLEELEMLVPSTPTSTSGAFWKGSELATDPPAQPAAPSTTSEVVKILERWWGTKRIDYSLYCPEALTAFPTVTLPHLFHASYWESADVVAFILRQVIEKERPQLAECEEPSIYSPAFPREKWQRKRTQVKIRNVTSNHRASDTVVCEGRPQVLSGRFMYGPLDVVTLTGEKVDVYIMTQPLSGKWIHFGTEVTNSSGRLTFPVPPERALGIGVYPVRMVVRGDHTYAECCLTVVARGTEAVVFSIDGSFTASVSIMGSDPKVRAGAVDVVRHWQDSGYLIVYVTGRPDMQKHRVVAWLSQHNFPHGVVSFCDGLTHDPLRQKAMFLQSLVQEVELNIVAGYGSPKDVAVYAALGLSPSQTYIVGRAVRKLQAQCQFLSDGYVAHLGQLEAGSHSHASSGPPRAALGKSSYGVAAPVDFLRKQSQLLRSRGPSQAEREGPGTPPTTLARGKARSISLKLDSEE
UniProt P48736: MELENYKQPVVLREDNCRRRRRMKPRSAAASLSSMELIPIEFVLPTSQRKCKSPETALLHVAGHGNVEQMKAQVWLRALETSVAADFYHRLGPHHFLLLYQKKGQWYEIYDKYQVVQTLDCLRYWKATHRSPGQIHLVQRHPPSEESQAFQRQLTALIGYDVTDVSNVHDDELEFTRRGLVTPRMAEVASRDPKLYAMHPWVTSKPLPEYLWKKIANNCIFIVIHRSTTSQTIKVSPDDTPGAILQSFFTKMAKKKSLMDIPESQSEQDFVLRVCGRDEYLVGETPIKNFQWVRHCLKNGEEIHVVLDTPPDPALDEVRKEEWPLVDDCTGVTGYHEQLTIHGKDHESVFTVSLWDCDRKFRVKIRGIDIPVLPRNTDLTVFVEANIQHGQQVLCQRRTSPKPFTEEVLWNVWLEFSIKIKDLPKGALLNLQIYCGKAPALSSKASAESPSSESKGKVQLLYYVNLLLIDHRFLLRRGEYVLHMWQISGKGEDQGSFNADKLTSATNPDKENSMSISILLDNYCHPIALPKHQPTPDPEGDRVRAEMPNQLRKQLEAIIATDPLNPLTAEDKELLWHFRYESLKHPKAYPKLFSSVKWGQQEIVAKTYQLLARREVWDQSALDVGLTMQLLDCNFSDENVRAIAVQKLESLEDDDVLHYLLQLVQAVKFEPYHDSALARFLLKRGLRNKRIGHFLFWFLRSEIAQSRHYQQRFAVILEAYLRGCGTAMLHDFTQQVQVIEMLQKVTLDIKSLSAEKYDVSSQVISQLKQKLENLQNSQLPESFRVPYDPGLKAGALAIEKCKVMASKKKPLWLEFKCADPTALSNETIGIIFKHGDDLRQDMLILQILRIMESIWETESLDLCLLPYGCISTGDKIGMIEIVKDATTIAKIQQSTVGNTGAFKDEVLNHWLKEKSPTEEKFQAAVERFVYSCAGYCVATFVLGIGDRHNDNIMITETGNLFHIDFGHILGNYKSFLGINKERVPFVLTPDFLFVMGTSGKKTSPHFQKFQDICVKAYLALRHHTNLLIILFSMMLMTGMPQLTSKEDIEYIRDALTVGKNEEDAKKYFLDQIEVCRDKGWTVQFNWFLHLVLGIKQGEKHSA
UniProt Q5H8A4: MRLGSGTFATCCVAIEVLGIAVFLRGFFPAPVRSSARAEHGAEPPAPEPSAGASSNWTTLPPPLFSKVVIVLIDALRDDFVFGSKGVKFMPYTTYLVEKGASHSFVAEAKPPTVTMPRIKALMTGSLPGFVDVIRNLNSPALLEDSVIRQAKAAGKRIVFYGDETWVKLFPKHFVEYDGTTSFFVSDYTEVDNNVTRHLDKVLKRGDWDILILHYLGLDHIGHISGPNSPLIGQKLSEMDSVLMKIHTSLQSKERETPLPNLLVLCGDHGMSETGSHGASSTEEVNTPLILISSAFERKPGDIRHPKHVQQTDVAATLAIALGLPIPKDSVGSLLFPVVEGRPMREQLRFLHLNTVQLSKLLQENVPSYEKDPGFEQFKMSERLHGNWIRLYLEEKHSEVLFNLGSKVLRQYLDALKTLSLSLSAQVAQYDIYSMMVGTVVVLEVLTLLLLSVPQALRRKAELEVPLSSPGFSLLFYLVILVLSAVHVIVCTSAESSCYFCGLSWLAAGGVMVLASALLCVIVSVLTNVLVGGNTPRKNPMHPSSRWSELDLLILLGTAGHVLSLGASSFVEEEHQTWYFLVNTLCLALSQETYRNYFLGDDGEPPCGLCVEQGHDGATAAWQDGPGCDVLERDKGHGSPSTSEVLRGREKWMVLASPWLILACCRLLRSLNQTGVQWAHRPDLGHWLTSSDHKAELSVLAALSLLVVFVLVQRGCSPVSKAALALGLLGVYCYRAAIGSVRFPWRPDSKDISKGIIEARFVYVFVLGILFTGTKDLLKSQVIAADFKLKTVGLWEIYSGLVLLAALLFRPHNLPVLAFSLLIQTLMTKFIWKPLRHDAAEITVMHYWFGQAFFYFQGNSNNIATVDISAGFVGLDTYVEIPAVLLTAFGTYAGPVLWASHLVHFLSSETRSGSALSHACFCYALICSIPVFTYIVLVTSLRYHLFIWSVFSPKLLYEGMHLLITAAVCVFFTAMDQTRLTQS

Experiments:
Experiment in all cases: log2 fold change, soluble protein after heating vs DMSO (PISA); higher = thermal stabilisation; K562 lysate, 10 uM; active = over 0.2 and 3.5 SD of the protein, either way, in both replicates (recomputed)
[1] = compound: C1=CC=C(C=C1)[C@H](COC2=CC3=C(C=C2)NC(=O)N3)NC(=O)C4=CC=CN(C4=O)CC5=CC(=C(C=C5)F)F
Outline: (§1)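 To prepare the extract, K562 pellets were dounce-homogenised in PBS pH 7.4 with 1 mM MgCl2, giving crude material at 1 mg/mL protein. This was treated with 10 μM compound for 30 min, then heated in aliquots for 3 min over 48°C-58°C before pooling and addition of NP-40 to 0.5% at 4°C. Centrifugation at 21,000xg for 90 min left soluble protein in the supernatant, which TMTpro 16plex LC-MS/MS quantified with equalised channel sums. Results are log-two fold changes in thermal stability compared with solvent controls, from duplicates.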

[2] = compound: CC1=C(SC2=C1C(=N[C@H](C3=NN=C(N32)C)CC(=O)N)C4=CC=C(C=C4)Cl)C
Outline: as §1

[3] = compound: CC1=C2C(=CC=C1)N=C(N(C2=O)C3=CC=CC=C3C)CN4C=NC5=C(N=CN=C54)N
Outline: as §1

[4] = compound: Cc1sc2c(c1C)C(c1ccc(Cl)cc1)=N[C@@H](CC(=O)OC(C)(C)C)c1nnc(C)n1-2
Outline: as §1

[5] = compound: c1ccc([C@@H]2C[C@H]2NC2CCNCC2)cc1
Outline: as §1

Target	log2 fold change [1]	log2 fold change [2]	log2 fold change [3]	log2 fold change [4]	log2 fold change [5]
PI4KB (UniProt Q9UBF8)	inactive: 0.022	inactive: -0.006	inactive: -0.019	inactive: -0.005	inactive: 0.002
PISD (UniProt Q9UG56)	inactive: -0.013	inactive: 0.1	inactive: 0.021	inactive: 0.037	inactive: 0.061
PIK3CA (UniProt P42336)	inactive: 0.026	inactive: 0.012	inactive: -0.039	inactive: 0.012	inactive: -0.045
PHKA1 (UniProt P46020)	inactive: 0.033	inactive: 0.02	inactive: 0	inactive: -0.008	inactive: 0.001
PGK1 (UniProt P00558)	inactive: -0.027	inactive: -0.001	inactive: -0.01	inactive: 0.024	inactive: 0.037
PHOX2B (UniProt Q99453)	inactive: 0.013	inactive: 0.033	inactive: -0.052	inactive: -0.388	
PHF6 (UniProt Q8IWS0)	inactive: -0.018	inactive: -0.034	inactive: -0.013	inactive: 0.033	inactive: 0.048
PKM (UniProt P14618)	inactive: 0.008	inactive: 0.014	inactive: -0.001	inactive: -0.009	inactive: -0.037
PIK3CB (UniProt P42338)	inactive: -0.066	inactive: -0.054	active: 0.518	inactive: -0.049	inactive: -0.033
PGM3 (UniProt D6RCQ8)	inactive: -0.731	inactive: 0.436			
PIM1 isoform 2 (UniProt P11309)	inactive: -0.115	inactive: -0.046	inactive: -0.127	inactive: -0.025	inactive: -0.191
PHF14 (UniProt O94880)	inactive: 0.048	inactive: 0.025	inactive: -0.038	inactive: 0.019	
PHACTR4 isoform 2 (UniProt Q8IZ21)	inactive: 0.03	inactive: 0	inactive: 0.014	inactive: 0.028	inactive: 0.264
PIK3CD (UniProt O00329)	inactive: -0.053	inactive: 0.075	active: 0.443	inactive: -0.027	inactive: 0.043
PIK3C3 (UniProt Q8NEB9)	inactive: -0.041	inactive: -0.032	inactive: -0.036	inactive: -0.014	inactive: -0.114
PLD3 (UniProt Q8IV08)	inactive: 0.004	inactive: 0.007	inactive: 0.012	inactive: -0.011	inactive: -0.024
PIGK (UniProt Q92643)	inactive: -0.019	inactive: -0.023	inactive: 0.014	inactive: -0.041	inactive: -0.037
PLEC (UniProt Q15149)	inactive: -0.01	inactive: 0.017	inactive: 0.009	inactive: -0.031	inactive: 0.023
PHC1 (UniProt P78364)	inactive: 0.025	inactive: 0.001	inactive: 0.041	inactive: -0.049	
PITX1 (UniProt P78337)	inactive: -0.185	inactive: -0.127	inactive: 0.027	inactive: 0.149	
PIK3R4 (UniProt Q99570)	inactive: -0.035	inactive: -0.014	inactive: 0.013	inactive: -0.001	inactive: -0.018
PGM2 (UniProt Q96G03)	inactive: 0.017	inactive: 0.021	inactive: 0.005	inactive: -0.002	inactive: -0.022
PIEZO1 (UniProt Q92508)	inactive: -0.003	inactive: 0.021	inactive: -0.001	inactive: 0.005	inactive: -0.018
PITPNB isoform 3 (UniProt P48739)	inactive: -0.006	inactive: 0.02	inactive: 0.012	inactive: 0.04	inactive: 0.008
PITHD1 (UniProt Q9GZP4)	inactive: 0.066	inactive: -0.068	inactive: 0.023	inactive: -0.037	inactive: -0.014
PLAA (UniProt Q9Y263)	inactive: -0.015	inactive: 0.02	inactive: -0.022	inactive: 0.018	inactive: -0.04
PGM2L1 (UniProt Q6PCE3)	inactive: 0.022	inactive: -0.008	inactive: 0.012	inactive: -0.029	inactive: -0.029
PIP5K1B isoform 2 (UniProt O14986)	inactive: -0.182	inactive: -0.221			

Target	log2 fold change [1]	log2 fold change [2]	log2 fold change [3]	log2 fold change [4]	log2 fold change [5]
PITPNM1 (UniProt O00562)	inactive: -0.294	inactive: -0.176			
PIP (UniProt P12273)	inactive: -0.022	inactive: 0.012	inactive: -0.342	inactive: -0.191	inactive: 0.044
PITRM1 isoform 2 (UniProt Q5JRX3)	inactive: 0.158	inactive: -0.193	inactive: 0.005	inactive: 0.04	inactive: 0.01
PKM (UniProt H3BTN5)	inactive: 0.155	inactive: 0.241	inactive: 0.089		
PGP (UniProt A6NDG6)	inactive: -0.008	inactive: -0.009	inactive: -0.006	inactive: 0.04	inactive: -0.036
PKN2 (UniProt Q16513)	inactive: -0.02	inactive: 0.02	inactive: 0.031	inactive: 0.034	inactive: 0.063
PIGM (UniProt Q9H3S5)	inactive: 0.024	inactive: -0.149	inactive: -0.068		
PKLR (UniProt P30613)	inactive: 0.01	inactive: 0.03	inactive: -0.012	inactive: -0.022	inactive: -0.015
PHKB isoform 3 (UniProt Q93100)	inactive: 0.015	inactive: 0.011	inactive: 0.042	inactive: -0.012	inactive: -0.066
PIGT (UniProt Q969N2)	inactive: -0.05	inactive: 0.02	inactive: 0.006	inactive: 0.009	inactive: -0.014
PKP3 isoform 2 (UniProt Q9Y446)	inactive: -0.049	inactive: 0.014	inactive: 0.002	inactive: 0.062	inactive: -0.004
PLEKHF1 (UniProt Q96S99)	inactive: -0.019	inactive: 0.034	inactive: 0.029	inactive: 0.01	inactive: 0.014
PIBF1 (UniProt Q8WXW3)	inactive: 0.079	inactive: -0.009	inactive: -0.051	inactive: -0.026	inactive: -0.046
PIK3CG (UniProt P48736)	inactive: -0.076	inactive: -0.065	inactive: 0.109	inactive: -0.047	inactive: -0.105
PGS1 (UniProt Q32NB8)	inactive: -0.08	inactive: 0.037	inactive: -0.077	inactive: 0.057	inactive: 0.022
PIP4P1 isoform 2 (UniProt Q86T03)	inactive: 0.003	inactive: 0.072	inactive: 0	inactive: -0.055	inactive: -0.081
PINX1 (UniProt Q96BK5)	inactive: 0.148	inactive: -0.001	inactive: -0.184	inactive: 0.109	inactive: -0.068
PIN1 (UniProt Q13526)	inactive: 0.012	inactive: -0.068	inactive: -0.006	inactive: 0.012	inactive: -0.018
PGLS (UniProt O95336)	inactive: -0.063	inactive: -0.06	inactive: 0.094	inactive: -0.04	inactive: 0.095
PIKFYVE (UniProt Q9Y2I7)	inactive: -0.005	inactive: 0.007	inactive: 0.016	inactive: 0.054	inactive: -0.03
PIN4 isoform 2 (UniProt Q9Y237)	inactive: 0.003	inactive: 0.001	inactive: 0.014	inactive: -0.048	inactive: -0.029
PIH1D1 (UniProt Q9NWS0)	inactive: 0.009	inactive: -0.023	inactive: -0.012	inactive: 0.008	inactive: 0.01
PHKA2 (UniProt P46019)	inactive: -0.111	inactive: 0.028	inactive: 0.052	inactive: 0.021	inactive: 0.038
PGGT1B (UniProt P53609)	inactive: -0.055	inactive: 0.021	inactive: -0.013	inactive: -0.004	inactive: 0.064
PIGG (UniProt Q5H8A4)	inactive: 0.148	inactive: 0.021	inactive: 0.051	inactive: 0.01	inactive: 0.075
PHB (UniProt P35232)	inactive: -0.126	inactive: -0.045	inactive: 0.002	inactive: 0.013	inactive: -0.006
PHPT1 (UniProt Q9NRX4)	inactive: -0.02	inactive: -0.031	inactive: -0.027	inactive: 0.007	inactive: 0.012
